Article PMC7819943, “Rice protein-binding microarrays: a tool to detect cis-acting elements near promoter regions in rice”
The other results are listed elsewhere or left out.

The chains behind the UniProt entries cited, without tags or fusion partners.
UniProt Q0JBA9, entry or part of it: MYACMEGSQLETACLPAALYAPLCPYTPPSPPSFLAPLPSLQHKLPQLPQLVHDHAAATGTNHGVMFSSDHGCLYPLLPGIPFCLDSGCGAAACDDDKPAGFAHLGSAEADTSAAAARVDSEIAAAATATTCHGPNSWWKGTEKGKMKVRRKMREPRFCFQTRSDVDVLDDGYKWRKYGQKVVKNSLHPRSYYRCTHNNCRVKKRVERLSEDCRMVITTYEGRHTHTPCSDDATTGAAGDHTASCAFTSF

Target: OsWRKY34 (Oryza sativa, UniProt Q0JBA9 1-250)
Test: protein-binding microarray (RPBM); PBS, 2% BSA, 51.3 ng/ul salmon testes DNA, 50 uM zinc acetate, 200 nM TF, 25 C, 1 h; high values mean tight binding
Details: protein: recombinant; tags: N-terminal polyhistidine and DsRed monomer fusion (pET32a); label: CyDye5-dUTP incorporated in the synthesized complementary strand; 3' TTTTT single-stranded linker to array surface; dsDNA, one strand shown
How it was run: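 Transcription factors were each fused at the N-terminus to a polyhistidine tag plus DsRed and expressed in E. coli BL21-CodonPlus before Ni–NTA purification. Binding to a double-stranded custom Agilent array was carried out with 200 nM protein at 25 °C for 1 h in PBS, 2% BSA, salmon testes DNA and 50 µM zinc acetate. The binding signal is per-feature fluorescence intensity, in arbitrary units, on an Axon 4000B scanner.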

Sequence	binding signal
TCCTGGCCCAACACCTGCTCCATCCGCCGCTCCTACTCTGCGGAGTCACCTAGTGCAG	8150 fluorescence intensity (a.u.)
AATGGCTCCGCAGCTTGTTTCTAGTCTCCTTAAAACTTACCGGAGTCACCTAGTGCAG	8700 fluorescence intensity (a.u.)
CTCCATCTGCTGCGCCCATCCACTCCACTCTTCCCTCCTCCGGAGTCACCTAGTGCAG	9360 fluorescence intensity (a.u.)
CCTAGACCCCTTCTCACGCCGCCAGCCCGTCACACCGAGTCGGAGTCACCTAGTGCAG	8790 fluorescence intensity (a.u.)
CCGTCTCTTCTTCATTACAGCGACACCAACGTTGATTTCCCGGAGTCACCTAGTGCAG	10800 fluorescence intensity (a.u.)
TGAGTTGTTTATTATCCTTCATTTCGAGTTGGGACCTTCACGGAGTCACCTAGTGCAG	8190 fluorescence intensity (a.u.)
TTGCTCTTGTTAATGTTTGGCTTTCTTCTTCTTCTGCTGCCGGAGTCACCTAGTGCAG	8600 fluorescence intensity (a.u.)
ATTCGCGAAAGCTCAGCTGCTTCTGCTTCTTCTTCTTCTTCGGAGTCACCTAGTGCAG	9420 fluorescence intensity (a.u.)
AACACACACATATATACACTTGCTTTGACTAACAGAGTCTCGGAGTCACCTAGTGCAG	10400 fluorescence intensity (a.u.)
GCAAGATCTCCATGATGCGACAGCTCTACCGTTACAATTACGGAGTCACCTAGTGCAG	8100 fluorescence intensity (a.u.)
GTCGGATCGCCACCCACCTCGCCGCCGCTGCTTGCTTCACCGGAGTCACCTAGTGCAG	10500 fluorescence intensity (a.u.)
GTGCCAGTCACTCCGGTGGCCCATTTTTTCTTCCTTTTTCCGGAGTCACCTAGTGCAG	8620 fluorescence intensity (a.u.)
GATGATCCTTTAGTTTGTTTCAGTTTGATTCGTTCTTTACCGGAGTCACCTAGTGCAG	16100 fluorescence intensity (a.u.)
TTAGTATGTTAAGCTCTTTGTTTCTTGATAGCTGGAAGCCCGGAGTCACCTAGTGCAG	8370 fluorescence intensity (a.u.)
GTTGGGGAGAAGGGGTGGTAAAATTTCTGGTATTATGGTTCGGAGTCACCTAGTGCAG	11700 fluorescence intensity (a.u.)
GTCCCAACCCTCTGTCTTCTTCTACCCGCGTACTACTCCACGGAGTCACCTAGTGCAG	10500 fluorescence intensity (a.u.)
AATTTACCGTCTTCTTAATTGTTTTTAGGTAGGAGTACAACGGAGTCACCTAGTGCAG	9170 fluorescence intensity (a.u.)
TTCCTATCCGAATCCTATATTTTTTTTTCTTATTTCTCTACGGAGTCACCTAGTGCAG	8750 fluorescence intensity (a.u.)
ATGCTTGATCTTCTTGGTTGCCTAACCATCGATTTTTTTCCGGAGTCACCTAGTGCAG	10300 fluorescence intensity (a.u.)
GGTTCTTCTGAGCGGGGCCGGGGCGGGGCGGCAGCTGGGGCGGAGTCACCTAGTGCAG	30000 fluorescence intensity (a.u.)
CTCCCTTCATCTTTTCTTTCATGTACAATGCACAAAACTTCGGAGTCACCTAGTGCAG	8040 fluorescence intensity (a.u.)

Sequence	binding signal
CGGCGTGATTCTCCGTGTCTGCTGCTCTGCTCCACGTATTCGGAGTCACCTAGTGCAG	8170 fluorescence intensity (a.u.)
CGCTTGGTTTGGGCGTTTTGATGTTACAAATTCCTCGTTTCGGAGTCACCTAGTGCAG	8850 fluorescence intensity (a.u.)
TTGAGTTTTTGTTTGCATTGTTTGACTACTCGTCTTATTTCGGAGTCACCTAGTGCAG	9450 fluorescence intensity (a.u.)
ATACGGTAGAGAAGATGGTCCTTTTTCTTGTCCTTTTTCTCGGAGTCACCTAGTGCAG	8700 fluorescence intensity (a.u.)
TGCGTACACTCCTTTGAAACCCCATTGCTATGTAGACAATCGGAGTCACCTAGTGCAG	8020 fluorescence intensity (a.u.)
CATTTGCCTGATTAGTCCATTCCCCACGGTTTATATTTTCCGGAGTCACCTAGTGCAG	13500 fluorescence intensity (a.u.)
AGCTTCAACCTCTTGTAACTTTCCTTTGAGTATATCTCTCCGGAGTCACCTAGTGCAG	10200 fluorescence intensity (a.u.)
TCTTTTTTTGTTGTTTGCTGGTTGTATGGTTTTTTGGTATCGGAGTCACCTAGTGCAG	9460 fluorescence intensity (a.u.)
CTGGTGTGTTACTCTGCTCTTACTCGTTTTCTGCCTGATCCGGAGTCACCTAGTGCAG	10400 fluorescence intensity (a.u.)
CCCTGTACGTATGTGTTTCCGTGTTAATTTCTGTCTCTTTCGGAGTCACCTAGTGCAG	9470 fluorescence intensity (a.u.)
ATATTGGCTCCATATTCTCCTCTCTTGCACCTCAGGTATACGGAGTCACCTAGTGCAG	10200 fluorescence intensity (a.u.)
CGCCATCACTGCCAAGCTCGCCGGCTACATCGCCCGCGCCCGGAGTCACCTAGTGCAG	8040 fluorescence intensity (a.u.)
AAATTATTTCCGATTTTTCCTTATTTTTTCCACCATTTCCCGGAGTCACCTAGTGCAG	9490 fluorescence intensity (a.u.)
TTCTTGTTCTTCATGGATGATACACCCTTGTTCTTGTTGCCGGAGTCACCTAGTGCAG	9610 fluorescence intensity (a.u.)
CTTAGCCAGCGTTTCTAGTTTCTCTTTCTTTTCCTGTTCCCGGAGTCACCTAGTGCAG	8720 fluorescence intensity (a.u.)
GATTGCTCCACACCATCTTCGCCTTCGAGATGACTCTCGTCGGAGTCACCTAGTGCAG	8540 fluorescence intensity (a.u.)
TGATTGGTGAGCTCGTGTTGGTATTTTTGTTTGTTTGTAGCGGAGTCACCTAGTGCAG	8530 fluorescence intensity (a.u.)
TACATAGAAACACTTCATGATTTTACCCTTTTACAGTTCTCGGAGTCACCTAGTGCAG	10200 fluorescence intensity (a.u.)
CGACGGGGCCATGTGGTTTGGTTTTGTTTAGCATCCCGTCCGGAGTCACCTAGTGCAG	9350 fluorescence intensity (a.u.)
TGGATCATATCTCGTCGGCCTGATTAACAGCAACCATAGACGGAGTCACCTAGTGCAG	8250 fluorescence intensity (a.u.)
GCGTTGTACCTGGTGTTGGTGTGAATAATATTGGGCGTTGCGGAGTCACCTAGTGCAG	8140 fluorescence intensity (a.u.)

Two entries from above, set out differently.

| Sequence | binding signal |
| --- | --- |
| TCTTTTTTTGTTGTTTGCTGGTTGTATGGTTTTTTGGTATCGGAGTCACCTAGTGCAG | 9460 fluorescence intensity (a.u.) |
| CTGGTGTGTTACTCTGCTCTTACTCGTTTTCTGCCTGATCCGGAGTCACCTAGTGCAG | 10400 fluorescence intensity (a.u.) |
